Source: patent US10456451B2, “Protease-resistant mutants of stromal cell derived factor-1 in the repair of tissue damage” (Mesoblast International Sàrl, priority 2010, dated 2019)
Entries after “also recorded” stand apart in the source; their conditions may differ.

Test system: DPPIV, MMP-2, leukocyte elastase, cathepsin G
Assay: Protease resistance profile based on FRET-peptide cleavage assay
Assay type: biochemical
Conditions: proteases the variant is resistant to

Substance	Resistance
SSDF-1 (L5D): SDF-1 with Leu→Asp at position 5 and N-terminal serine	DDPIV, MMP-2,; also recorded: Elastase,; also recorded: Cathepsin G
SSDF-1 (L5E): SDF-1 with Leu→Glu at position 5 and N-terminal serine	DDPIV, MMP-2,; also recorded: elastase,; also recorded: cathepsin G
SSDF-1 (L5H): SDF-1 with Leu→His at position 5 and N-terminal serine	DDPIV, MMP-2,; also recorded: Cathepsin G
SSDF-1 (L5K): SDF-1 with Leu→Lys at position 5 and N-terminal serine	DDPIV, MMP-2,; also recorded: Elastase
SSDF-1 (L5P): SDF-1 with Leu→Pro at position 5 (SEQ ID NO:66) and N-terminal serine	DDPIV, MMP-2,; also recorded: elastase,; also recorded: cathepsin G
SSDF-1 (L5T): SDF(L5T) (SEQ ID NO:56) with N-terminal serine	DPPIV, MMP-2,; also recorded: Cathepsin G
SSDF-1 (L5V): SDF(L5V) (SEQ ID NO:60) with N-terminal serine	DPPIV, MMP-2,; also recorded: Cathepsin G
SSDF-1 (L5W): SDF-1 with Leu→Trp at position 5 and N-terminal serine	DDPIV, MMP-2
SSDF-1 (S4V): SDF-1(S4V) (SEQ ID NO:65) with a serine residue added at the N-terminus	DDPIV, MMP-2
SSDF-1 (S6C): SDF(S6C) (SEQ ID NO:61) with N-terminal serine	DPPIV, MMP-2
SSDF-1 (S6G): SDF(S6G) (SEQ ID NO:62) with N-terminal serine	DPPIV, MMP-2,; also recorded: Cathepsin G
SSDF-1 (V3C): SDF(V3C) (SEQ ID NO:55) with N-terminal serine	DPPIV, elastase
SSDF-1 (V3D): SDF-1 with Val→Asp at position 3 and N-terminal serine	DDPIV, MMP-2,; also recorded: elastase,; also recorded: Cathepsin G
SSDF-1 (V3G): SDF-1 with Val→Gly at position 3 and N-terminal serine	DDPIV,; also recorded: elastase,; also recorded: Cathepsin G
SSDF-1 (V3H): SDF(V3H) (SEQ ID NO:54) with N-terminal serine	DPPIV, elastase
SSDF-1 (V3P): SDF-1 with Val→Pro at position 3 and N-terminal serine	DDPIV, MMP-2,; also recorded: elastase,; also recorded: Cathepsin G
SSDF-1: SDF-1 with a serine residue added at the N-terminus	DPPIV
